Assay: Caco-2 permeability assay
Format: in vitro ADME
Conditions: human, Caco-2, pH 7.4, N = 2
Protocol: Caco-2 permeability assay. To assay the permeability of test compounds by Caco-2 cell model, Caco-2 cells were cultured to confluency before being trypsinized and seeded onto filter transwell inserts at a density of 30,000 cells/well in DMEM medium. Cells were cultured in a humidified atmosphere with 5% CO2 at 37° C. After overnight attachment, cell medium was replaced with fresh medium at both apical and basolateral sides every other day. The cell monolayers are ready for the assay 20 days post seeding. […] The dosing solution at 10 μM was obtained by diluting 10 mM stock solution in HBSS medium (pH 7.4, 25 mM HEPES) freshly before the assay. Terfenadine (25 ng/mL) and Tolbutamide (50 ng/mL) were added into dosing solution as internal standards. […] The culture medium from either the basolateral side (plate B) or apical side (plate A) were aspirated and then rinsed with HBSS medium once. Afterwards, the dosing medium was added to either basolateral or apical side. […] Samples were quenched with acetonitrile/methanol (1:1 v/v), centrifuged, and analyzed on a Shimadzu reversed-phase HPLC and Sciex API4500 Q trap instrument.
Permeability parameters were calculated using the following equations and shown in Table 10: Papp=(Conc.receiver,90 min*Volumereceiver)/(Time*Membrane Area*Conc.donor,0 min) Efflux Ratio=Papp[B to A]/Papp[A to B]

Papp A→B at 90 min, 10 μM: 35 ×10⁻⁶ cm/s
SMILES: CC(C)NCC(O)COc1cccc2ccccc12 (stereo not shown) [Propranolol]

— patent publication US12329799B2, “Peptidyl inhibitors of calcineurin-NFAT interaction” (Ohio State Innovation Foundation, priority 2018, dated 2025)
